The target of experiment [1] is Bcl-2 (human (endogenous in HCT116)) (UniProt P10415). Nature of the experiment: co-IP.
Experiment [2] addresses NCF-1 (human (endogenous in HCT116)) (UniProt P14598). Nature of the experiment: co-IP.

Sequences of proteins named here, by UniProt entry; tags and fusion partners are left off.
UniProt P10415: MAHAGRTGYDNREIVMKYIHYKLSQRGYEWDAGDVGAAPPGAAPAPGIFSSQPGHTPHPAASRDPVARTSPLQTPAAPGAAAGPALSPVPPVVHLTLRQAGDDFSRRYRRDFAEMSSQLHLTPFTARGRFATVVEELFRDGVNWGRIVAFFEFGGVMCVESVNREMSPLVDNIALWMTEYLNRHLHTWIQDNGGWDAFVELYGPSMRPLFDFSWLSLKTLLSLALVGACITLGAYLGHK
UniProt P14598: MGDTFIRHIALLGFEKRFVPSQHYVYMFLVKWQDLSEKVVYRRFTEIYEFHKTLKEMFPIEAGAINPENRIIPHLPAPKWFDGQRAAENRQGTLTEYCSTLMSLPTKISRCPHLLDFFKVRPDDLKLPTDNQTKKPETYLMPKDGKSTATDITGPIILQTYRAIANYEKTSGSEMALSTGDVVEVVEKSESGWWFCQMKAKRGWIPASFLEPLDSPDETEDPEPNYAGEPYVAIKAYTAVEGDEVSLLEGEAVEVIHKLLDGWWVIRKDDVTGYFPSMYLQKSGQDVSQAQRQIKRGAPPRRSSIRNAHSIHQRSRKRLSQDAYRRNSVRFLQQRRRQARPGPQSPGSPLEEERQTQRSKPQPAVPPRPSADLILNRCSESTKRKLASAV
UniProt Q14457: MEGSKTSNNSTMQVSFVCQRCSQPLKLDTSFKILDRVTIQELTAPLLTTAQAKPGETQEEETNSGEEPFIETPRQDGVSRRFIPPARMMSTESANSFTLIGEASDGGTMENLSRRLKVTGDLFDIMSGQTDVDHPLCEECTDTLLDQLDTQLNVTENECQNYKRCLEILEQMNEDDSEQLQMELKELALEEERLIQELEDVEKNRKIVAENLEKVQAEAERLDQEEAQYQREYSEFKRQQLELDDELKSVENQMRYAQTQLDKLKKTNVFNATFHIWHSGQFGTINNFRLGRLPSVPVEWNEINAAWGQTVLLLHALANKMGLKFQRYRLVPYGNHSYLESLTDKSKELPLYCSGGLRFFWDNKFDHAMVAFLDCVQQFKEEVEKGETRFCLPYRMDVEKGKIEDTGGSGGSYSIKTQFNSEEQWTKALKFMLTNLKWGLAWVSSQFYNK
UniProt Q03135: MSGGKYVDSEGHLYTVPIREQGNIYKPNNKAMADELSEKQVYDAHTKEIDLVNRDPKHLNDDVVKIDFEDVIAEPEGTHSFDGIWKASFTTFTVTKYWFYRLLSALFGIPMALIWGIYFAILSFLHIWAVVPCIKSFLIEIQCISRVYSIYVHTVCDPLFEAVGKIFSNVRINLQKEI

Here are results for three molecules from article PMC5833450.

No constants are given. Whether binding was seen depends on the method and setting. Binding seen in cells or lysates may run through a third protein. Some binding calls cover weakened binding; strength is not graded here.

For Beclin-1 (from UniProt Q14457 1-450), the binding result in experiment [1] is listed as “binds”.
Consider caveolin-1 (from UniProt Q03135 1-178), for which, in experiment [2], the binding result is given as “binds”.

B1: melatonin receptor 2 (receptor, UniProt P49286 1-362)
chain: MSENGSFANCCEAGGWAVRPGWSGAGSARPSRTPRPPWVAPALSAVLIVTTAVDVVGNLLVILSVLRNRKLRNAGNLFLVSLALADLVVAFYPYPLILVAIFYDGWALGEEHCKASAFVMGLSVIGSVFNITAIAINRYCYICHSMAYHRIYRRWHTPLHICLIWLLTVVALLPNFFVGSLEYDPRIYSCTFIQTASTQYTAAVVVIHFLLPIAVVSFCYLRIWVLVLQARRKAKPESRLCLKPSDLRSFLTMFVVFVIFAICWAPLNCIGLAVAINPQEMAPQIPEGLFVTSYLLAYFNSCLNAIVYGLLNQNFRREYKRILLALWNPRHCIQDASKGSHAEGLQSPAPPIIGVQHQADAL
Turning to B1, in experiment [2], the binding entry is “binds”.
